Measurements reported in PubChem BioAssay AID1224830 (NIAID, 2016)
Screen: 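Regulators of TLR4 signalling towards TNF-alpha in macrophage-like cells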 (primary screen). System: human THP-1 monocytic leukaemia cells, TNF dual-luciferase reporter clone, PMA-differentiated to macrophage-like cells. Reagent: siRNA pool against human genes, 50 nM. Time to read-out: LPS for 4 h, given about 3 days after siRNA transfection. Conditions: bacterial LPS (TLR4 ligand), 10 ng/ml. Read-out: 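TNF firefly reporter luminescence divided by renilla, normalised to the plate median, then turned into a robust z-score for each replicate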. Reading the numbers: TNF reporter robust z-score: higher = stronger TNF reporter response to LPS. Active means: 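Each well counts as active if its z-score is over 2.8 or under -1.5; controls are left without a call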.
The whole screen tested about 18,000 reagents; this is a part drawn at random. About 2,900 of them (16%) were called active. 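Calls are made per well; low scores hint the gene aids the LPS response, high scores that it dampens it.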 A number with no mark means an inactive call. Repeated entries: four replicate wells of each siRNA pool.

SLC39A7 | TNF reporter robust z-score: 0.62
SLC39A7 | TNF reporter robust z-score: 0.6
SLC39A7 | TNF reporter robust z-score: 0.65
SLC39A7 | TNF reporter robust z-score: 1.24
FAM194C | TNF reporter robust z-score: 1.51
FAM194C | TNF reporter robust z-score: 2.45
FAM194C | TNF reporter robust z-score: 0.75
FAM194C | TNF reporter robust z-score: 0.49
PCDHB4 | TNF reporter robust z-score: 0.09
PCDHB4 | TNF reporter robust z-score: -1.28
PCDHB4 | TNF reporter robust z-score: -0.65
PCDHB4 | TNF reporter robust z-score: -0.07
ADAMTS8 | TNF reporter robust z-score: 0.25
ADAMTS8 | TNF reporter robust z-score: 0.26
ADAMTS8 | TNF reporter robust z-score: 0.32
ADAMTS8 | TNF reporter robust z-score: 0.22
CDH15 | TNF reporter robust z-score: 0.08
CDH15 | TNF reporter robust z-score: -0.01
CDH15 | TNF reporter robust z-score: -0.46
CDH15 | TNF reporter robust z-score: -0.36
CHRNA5 | TNF reporter robust z-score: -1.28
CHRNA5 | TNF reporter robust z-score: 0.16
CHRNA5 | TNF reporter robust z-score: 0.8
CHRNA5 | TNF reporter robust z-score: -1.06
SPTLC3 | TNF reporter robust z-score: 8.49 (active)
SPTLC3 | TNF reporter robust z-score: 0.91
SPTLC3 | TNF reporter robust z-score: -0.73
SPTLC3 | TNF reporter robust z-score: 0.74
CPLANE1 | TNF reporter robust z-score: 0.84
CPLANE1 | TNF reporter robust z-score: 0.71
CPLANE1 | TNF reporter robust z-score: -0.71
CPLANE1 | TNF reporter robust z-score: 0.03
DSCAML1 | TNF reporter robust z-score: 0.47
DSCAML1 | TNF reporter robust z-score: 1.28
DSCAML1 | TNF reporter robust z-score: 0.25
DSCAML1 | TNF reporter robust z-score: 0.22
AIMP1 | TNF reporter robust z-score: -0.84
AIMP1 | TNF reporter robust z-score: 0.32
AIMP1 | TNF reporter robust z-score: -0.19
AIMP1 | TNF reporter robust z-score: -0.62
DENND2D | TNF reporter robust z-score: 0.31
DENND2D | TNF reporter robust z-score: 0.98
DENND2D | TNF reporter robust z-score: 0.84
DENND2D | TNF reporter robust z-score: -0.11
AP1M1 | TNF reporter robust z-score: -1.12
AP1M1 | TNF reporter robust z-score: 0.02
AP1M1 | TNF reporter robust z-score: -0.24
AP1M1 | TNF reporter robust z-score: 0.11
CBLC | TNF reporter robust z-score: -0.32
CBLC | TNF reporter robust z-score: 5.04 (active)
CBLC | TNF reporter robust z-score: 0.61
CBLC | TNF reporter robust z-score: 0.38
ANO2 | TNF reporter robust z-score: 0.46
ANO2 | TNF reporter robust z-score: 0.23
ANO2 | TNF reporter robust z-score: 0.09
ANO2 | TNF reporter robust z-score: 0.65
LIPK | TNF reporter robust z-score: 0.04
LIPK | TNF reporter robust z-score: 0.28
LIPK | TNF reporter robust z-score: -0.18
CTTNBP2 | TNF reporter robust z-score: -0.31
CTTNBP2 | TNF reporter robust z-score: -0.9
CTTNBP2 | TNF reporter robust z-score: 0.58
CTTNBP2 | TNF reporter robust z-score: -0.78

Part of the list above in another layout:
FAM194C
- TNF reporter robust z-score: 0.75

FAM194C
- TNF reporter robust z-score: 0.49

PCDHB4
- TNF reporter robust z-score: 0.09

PCDHB4
- TNF reporter robust z-score: -1.28

PCDHB4
- TNF reporter robust z-score: -0.65

PCDHB4
- TNF reporter robust z-score: -0.07

ADAMTS8
- TNF reporter robust z-score: 0.25

ADAMTS8
- TNF reporter robust z-score: 0.26

ADAMTS8
- TNF reporter robust z-score: 0.32
